According to publication doi:10.1101/822031:
Like-named read-outs stand apart in the source and are kept apart here. No constants are given. Whether binding was seen depends on the method and setting. Binding seen in cells or lysates may run through a third protein. Some results given as binding are weak or reduced against the parent protein; the word gives no strength. For some assays here: Sequences can lack the tags named with a protein.

Chains of the proteins cited; added tags and fusions are not shown. Lines headed by an entry give the natural chain unless they say otherwise; changes in a name come on top.
UniProt P43378, whole entry, looked up, stated change not applied: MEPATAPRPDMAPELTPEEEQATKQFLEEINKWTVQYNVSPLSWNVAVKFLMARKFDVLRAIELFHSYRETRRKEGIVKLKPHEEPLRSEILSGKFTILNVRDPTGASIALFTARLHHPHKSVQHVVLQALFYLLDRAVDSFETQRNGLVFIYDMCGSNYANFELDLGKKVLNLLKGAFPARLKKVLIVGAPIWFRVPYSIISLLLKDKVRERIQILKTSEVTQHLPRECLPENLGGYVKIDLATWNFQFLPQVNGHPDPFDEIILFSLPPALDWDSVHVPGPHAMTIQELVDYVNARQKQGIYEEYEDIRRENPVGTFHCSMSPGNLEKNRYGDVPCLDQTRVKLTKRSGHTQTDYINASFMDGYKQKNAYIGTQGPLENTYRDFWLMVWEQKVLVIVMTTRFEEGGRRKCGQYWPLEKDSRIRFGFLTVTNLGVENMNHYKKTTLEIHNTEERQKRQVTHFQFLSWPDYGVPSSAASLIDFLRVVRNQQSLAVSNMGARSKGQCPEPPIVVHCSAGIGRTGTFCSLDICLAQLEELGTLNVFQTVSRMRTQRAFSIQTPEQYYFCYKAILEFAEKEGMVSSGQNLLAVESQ
UniProt Q9QUL6, whole entry: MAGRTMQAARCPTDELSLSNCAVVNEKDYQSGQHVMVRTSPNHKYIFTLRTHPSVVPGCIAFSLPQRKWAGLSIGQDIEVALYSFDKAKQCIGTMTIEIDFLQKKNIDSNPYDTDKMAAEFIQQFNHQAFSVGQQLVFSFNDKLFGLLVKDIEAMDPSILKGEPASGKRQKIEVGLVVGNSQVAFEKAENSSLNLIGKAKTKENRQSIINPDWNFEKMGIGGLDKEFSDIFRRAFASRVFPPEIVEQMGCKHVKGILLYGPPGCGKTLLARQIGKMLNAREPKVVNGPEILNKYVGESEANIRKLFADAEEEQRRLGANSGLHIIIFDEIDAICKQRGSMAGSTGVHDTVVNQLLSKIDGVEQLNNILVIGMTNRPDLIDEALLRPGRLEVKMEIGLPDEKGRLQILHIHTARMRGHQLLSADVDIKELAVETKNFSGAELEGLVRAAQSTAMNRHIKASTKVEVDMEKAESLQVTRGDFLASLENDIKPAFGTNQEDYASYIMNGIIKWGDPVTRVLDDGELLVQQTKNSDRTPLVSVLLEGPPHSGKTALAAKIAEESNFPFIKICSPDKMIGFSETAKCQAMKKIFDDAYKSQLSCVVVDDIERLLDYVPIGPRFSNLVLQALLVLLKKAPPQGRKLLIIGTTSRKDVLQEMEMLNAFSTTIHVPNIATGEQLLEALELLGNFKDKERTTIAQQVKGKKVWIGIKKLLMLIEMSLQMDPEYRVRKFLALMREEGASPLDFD

Assays:
Assay in all cases: co-IP
[1] = target: PTP-MEG2-D470A-GFP (UniProt P43378)
[2] = target: PTP-MEG2-D470A-GFP G334R (UniProt P43378)
[3] = target: PTP-MEG2-D470A-GFP I519A (UniProt P43378)
[4] = target: PTP-MEG2-D470A-GFP Y471F (UniProt P43378)
[5] = target: PTP-MEG2-D470A-GFP D335A (UniProt P43378)
[6] = target: PTP-MEG2-D470A-GFP Q559A (UniProt P43378)
[7] = target: PTP-MEG2-D470A-GFP Y471A (UniProt P43378)
[8] = target: PTP-MEG2-D470A-GFP (UniProt P43378); remark: listed apart in the source

Measured: binding

NSF in PC12 cell lysate (GFP pull-down) (from UniProt Q9QUL6 1-744)
not listed: [8]
binds: all other assays above

B1: DYNAMIN2 in PC12 cell lysate (GFP pull-down) (protein, UniProt P39052 1-870)
chain: MGNRGMEELIPLVNKLQDAFSSIGQSCHLDLPQIAVVGGQSAGKSSVLENFVGRDFLPRGSGIVTRRPLILQLIFSKTEYAEFLHCKSKKFTDFDEVRQEIEAETDRVTGTNKGISPVPINLRVYSPHVLNLTLIDLPGITKVPVGDQPPDIEYQIKDMILQFISRESSLILAVTPANMDLANSDALKLAKEVDPQGLRTIGVITKLDLMDEGTDARDVLENKLLPLRRGYIGVVNRSQKDIEGRKDIRAALAAERKFFLSHPAYRHMADRMGTPHLQKTLNQQLTNHIRESLPTLRSKLQSQLLSLEKEVEEYKNFRPDDPTRKTKALLQMVQQFGVDFEKRIEGSGDQVDTLELSGGARINRIFHERFPFELVKMEFDEKDLRREISYAIKNIHGVRTGLFTPDLAFEAIVKKQVVKLKEPCLKCVDLVIQELISTVRQCTSKLSSYPRLREETERIVTTYIREREGRTKDQILLLIDIEQSYINTNHEDFIGFANAQQRSTQLNKKRAIPNQGEILVIRRGWLTINNISLMKGGSKEYWFVLTAESLSWYKDEEEKEKKYMLPLDNLKIRDVEKGFMSNKHVFAIFNTEQRNVYKDLRQIELACDSQEDVDSWKASFLRAGVYPEKDQAENEDGAQENTFSMDPQLERQVETIRNLVDSYVAIINKSIRDLMPKTIMHLMINNTKAFIHHELLAYLYSSADQSSLMEESAEQAQRRDDMLRMYHALKEALNIIGDISTSTVSTPVPPPVDDTWLQNTSSHSPTPQRRPVSSVHPPGRPPAVRGPTPGPPLIPMPVGATSSFSAPPIPSRPGPQNVFANNDPFSAPPQIPSRPARIPPGIPPGVPSRRAPAAPSRPTIIRPAEPSLLD
binds: [8]
